Measurements: PubChem BioAssay (Tox21)
This list was built around the results that the source calls inconclusive (neither active nor inactive); the mix of calls is not that of the screen. A potency beside an inconclusive call is a rough fit, not a confirmed value. Active and inactive are the calls of the source. Calls come from the whole dose curve; as a rule, active = well fitted activation curve with a large enough effect in the repeat runs; inconclusive = weak or mixed curves; inactive = no such curve, though single readings can be large or run the other way.

assay: qHTS assay to identify small molecule agonists of the estrogen related receptor signaling pathway with the pleiotropic PPARgamma coactivator (PGC) (AID 1224823); conditions: ERR/PGC reporter cell line, luciferase agonist mode; series mostly up to 46.1 µM
In short: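 Steps: plate PGC/ERR cells at 2,000 cells/well; incubate 6 h, 37 C/5% CO2; pin-transfer compounds (DMSO); incubate 18 h, 37 C; add One-Glo; 30 min RT; read luminescence.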
Potency is the fitted concentration of half-maximal effect.

Compound | Potency
C[C@H](Cc1ccccc1)Nc1ncnc2c1ncn2[C@@H]1O[C@H](CO)C(O)[C@H]1O (stereo partly drawn) | active: 10.2 µM
COc1ccc(NC(=O)/C=C/c2ccc(Cl)cc2)cc1 | inconclusive: 2.82 µM [activator]
CN1CCc2cc(NC(=O)Nc3cccnc3)ccc21 | inconclusive: 17.4 µM [activator]
